# Assay results published in PubChem BioAssay AID2685 (National Center for Advancing Translational Sciences (NCATS), 2010).
# Some of the results follow. The main result of the screen is listed elsewhere. These columns were measured beside it and carry no call. Compounds called inactive in the main read-out are mostly missing here. Potencies come from curve fits of mixed quality, noted in brackets.
# Experiment: qHTS Assay for Lipid Storage Modulators in Drosophila S3 Cells;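 as to cell number change: cells counted by Cell Tracker Red CMTPX staining in the red channel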
# Conditions: BODIPY lipid droplet fluorescence, 18-24 h; for cell number change: measured here: cell count max response, cells fed with added oleic acid
# Summary of the method: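 Drosophila S3 cells loaded with oleic acid (400 uM, as added) and compounds at several concentrations; lipid droplets imaged by 488-nm laser-scanning cytometry, 500–530 nm intensity and object ratio to cell channel. Percent activity normalized to 20 uM Triacsin C.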
# [1] = measured here: cell number channel AC50, cells fed with added oleic acid
# [2] = measured here: lipid fluorescence (Fed channel) AC50, cells fed with added oleic acid
SMILES,cell number change,AC50 [1],AC50 [2]
COCCn1c(-c2ccc(-c3ccc([N+](=O)[O-])cc3Br)o2)nc2c1c(=O)[nH]c(=O)n2CC(C)C,62.9%,"29.1 µM [rising, single point]","29.1 µM [rising, single point]"
Cc1onc(-c2c(F)cccc2Cl)c1C(=O)OCC(=O)c1c[nH]c2ccccc12,0.389%,,"0.00517 µM [rising, full curve, poor fit]"
CC(C)N1CC(C(=O)Nc2cc(Cl)cc(Cl)c2)CC1=O (stereo not drawn),3.65%,,"4.11 µM [falling, full curve]"
CCOC(=O)N/N=C(\C)c1ccc(Br)cc1,,"1.84 µM [rising, partial curve]","2.91 µM [rising, partial curve]"
Cc1ccnc(SCc2ccc([N+](=O)[O-])cc2)n1,7.66%,,"1.3 µM [falling, partial curve]"
Cc1ccc(C(=O)N2CCCC(Nc3ccc(C(C)C)cc3)C2)cn1 (stereo not drawn),8.94%,,"3.66 µM [rising, partial curve, poor fit]"
CN=c1scc(-c2cc(OC)ccc2OC)n1/N=C/c1c(C)[nH]c2ccccc12,-31.3%,"29.1 µM [falling, single point]","29.1 µM [falling, single point]"
Cc1ccccc1OCC(=O)N/N=C/c1ccc([N+](=O)[O-])o1,-29%,,"20.6 µM [falling, partial curve]"
CCCc1nc2ccccc2c(=O)n1/N=C/c1ccccc1O,-27%,,"0.146 µM [falling, single point]"
COc1cccc(CCC(=O)O)c1OC,5%,,"0.00461 µM [falling, full curve, poor fit]"
Cc1cc(C(N)=O)c2ccccc2n1,-16.3%,"4.61 µM [falling, single point]","0.0366 µM [falling, full curve, poor fit]"
CC[C@@]12C(=O)N(c3cccc(Br)c3)C(=O)N1[C@H](c1ccc(OC)cc1)[C@@H]1C(=O)N(C(C)(C)C)C(=O)[C@@H]12,18.2%,,"16.4 µM [rising, single point]"
COc1ccc(S(=O)(=O)NCC(=O)Nc2ccc3c(c2)OCCO3)cc1OC,13.1%,,"29.1 µM [falling, single point]"
CC(=O)c1c(C)[nH]c(C(=O)CSc2nnc(-c3ccco3)n2Cc2ccccc2)c1C,1.56%,,"0.366 µM [rising, full curve, poor fit]"
CS(=O)(=O)N1CCN(c2ccc([N+](=O)[O-])c(N3CCOCC3)c2)CC1,167%,,"3.66 µM [rising, full curve]"

# An excerpt of these results, as tab-separated lines:
SMILES	cell number change	AC50 [1]	AC50 [2]
CC(C)N1CC(C(=O)Nc2cc(Cl)cc(Cl)c2)CC1=O (stereo not drawn)	3.65%		4.11 µM [falling, full curve]
CCOC(=O)N/N=C(\C)c1ccc(Br)cc1		1.84 µM [rising, partial curve]	2.91 µM [rising, partial curve]
